Test results: ChEMBL document CHEMBL2046388, “Synthesis and biological evaluation of novel anticancer bivalent colchicine-tubulizine hybrids” (Bioorg Med Chem, 2012)

Test system: HBL-100
Experiment: Antiproliferative activity against human HBL100 after 72 hrs by MTT assay
Type: functional, cell-based
Details: HBL-100, 72 h

Structure (SMILES): COc1cc2c(c(OC)c1OC)-c1ccc(OC)c(=O)cc1[C@@H](N)CC2 [DEACETYLCOLCHICINE]
- IC50: 0.045 µM
